{"source": "paper PMC6364870", "target": "T1, SATB2 (mouse (endogenous in cortex)) (UniProt Q8VI24)", "T1 sequence": "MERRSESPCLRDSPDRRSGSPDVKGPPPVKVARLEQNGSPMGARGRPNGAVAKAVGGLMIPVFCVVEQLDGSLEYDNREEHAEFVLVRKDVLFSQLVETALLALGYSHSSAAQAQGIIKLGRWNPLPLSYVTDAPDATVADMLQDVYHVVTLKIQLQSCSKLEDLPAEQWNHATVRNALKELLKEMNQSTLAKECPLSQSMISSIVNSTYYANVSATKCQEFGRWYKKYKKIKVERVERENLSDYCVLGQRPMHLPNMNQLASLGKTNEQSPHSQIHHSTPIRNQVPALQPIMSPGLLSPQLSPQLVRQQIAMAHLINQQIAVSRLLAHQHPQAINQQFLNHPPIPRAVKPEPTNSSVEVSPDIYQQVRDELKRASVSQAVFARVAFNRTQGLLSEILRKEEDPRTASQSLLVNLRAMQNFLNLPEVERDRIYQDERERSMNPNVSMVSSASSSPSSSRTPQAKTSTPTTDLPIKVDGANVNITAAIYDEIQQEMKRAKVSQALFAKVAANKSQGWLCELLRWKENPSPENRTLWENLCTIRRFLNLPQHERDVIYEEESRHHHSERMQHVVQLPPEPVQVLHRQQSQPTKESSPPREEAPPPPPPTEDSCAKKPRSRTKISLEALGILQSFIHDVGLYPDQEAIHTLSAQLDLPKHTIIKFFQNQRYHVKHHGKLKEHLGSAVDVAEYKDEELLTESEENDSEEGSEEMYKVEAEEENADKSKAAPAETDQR", "assay": "co-IP; anti-SATB2 on protein G Dynabeads, 500 μg of cortical lysate of control and SATB2-deficient mice, overnight 4°C; immunoblot with antibodies against the partners", "note": "No constants are given. Whether binding was seen depends on the method and setting. In cells and extracts the contact can be indirect. A result given as binding can be weak or reduced; the word gives no strength.", "data": [{"substance": "LAP2 (mouse (endogenous in cortex))", "values": [{"measurement": "binding", "value": "binds"}]}]}
